From publication PMC4739761
No constants are given. Whether binding was seen depends on the method and setting. Some entries that bind do so weakly or less than the wild type. One block for each substance: values may come before it.

By UniProt entry, the sequences of proteins in these tests, tags left out. Where a name states a change or a piece, a line headed by the entry shows the natural chain unless it says otherwise. Chains listed by the source or under a name are the forms on record and can include a tag or linker.
hamster BiP E201G (His6-tagged) (G3I8R9, form named): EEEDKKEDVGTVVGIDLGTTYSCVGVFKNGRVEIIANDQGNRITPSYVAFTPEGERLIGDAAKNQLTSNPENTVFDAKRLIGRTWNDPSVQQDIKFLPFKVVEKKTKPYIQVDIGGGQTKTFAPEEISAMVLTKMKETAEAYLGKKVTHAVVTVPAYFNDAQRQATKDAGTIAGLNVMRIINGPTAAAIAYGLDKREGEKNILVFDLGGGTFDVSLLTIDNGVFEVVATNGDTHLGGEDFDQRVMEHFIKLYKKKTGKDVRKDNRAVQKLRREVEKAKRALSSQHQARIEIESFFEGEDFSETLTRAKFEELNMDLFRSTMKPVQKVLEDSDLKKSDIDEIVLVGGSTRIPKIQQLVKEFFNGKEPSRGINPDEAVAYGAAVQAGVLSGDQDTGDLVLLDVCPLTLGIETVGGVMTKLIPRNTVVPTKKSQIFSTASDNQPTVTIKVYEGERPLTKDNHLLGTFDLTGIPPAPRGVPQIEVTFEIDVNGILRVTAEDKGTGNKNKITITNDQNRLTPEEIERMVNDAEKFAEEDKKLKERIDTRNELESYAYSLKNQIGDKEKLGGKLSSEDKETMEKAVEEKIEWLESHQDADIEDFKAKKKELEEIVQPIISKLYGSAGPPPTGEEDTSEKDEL
hamster BiP T366A (His6-tagged) (Chinese hamster (Cricetulus griseus)) (G3I8R9, form named): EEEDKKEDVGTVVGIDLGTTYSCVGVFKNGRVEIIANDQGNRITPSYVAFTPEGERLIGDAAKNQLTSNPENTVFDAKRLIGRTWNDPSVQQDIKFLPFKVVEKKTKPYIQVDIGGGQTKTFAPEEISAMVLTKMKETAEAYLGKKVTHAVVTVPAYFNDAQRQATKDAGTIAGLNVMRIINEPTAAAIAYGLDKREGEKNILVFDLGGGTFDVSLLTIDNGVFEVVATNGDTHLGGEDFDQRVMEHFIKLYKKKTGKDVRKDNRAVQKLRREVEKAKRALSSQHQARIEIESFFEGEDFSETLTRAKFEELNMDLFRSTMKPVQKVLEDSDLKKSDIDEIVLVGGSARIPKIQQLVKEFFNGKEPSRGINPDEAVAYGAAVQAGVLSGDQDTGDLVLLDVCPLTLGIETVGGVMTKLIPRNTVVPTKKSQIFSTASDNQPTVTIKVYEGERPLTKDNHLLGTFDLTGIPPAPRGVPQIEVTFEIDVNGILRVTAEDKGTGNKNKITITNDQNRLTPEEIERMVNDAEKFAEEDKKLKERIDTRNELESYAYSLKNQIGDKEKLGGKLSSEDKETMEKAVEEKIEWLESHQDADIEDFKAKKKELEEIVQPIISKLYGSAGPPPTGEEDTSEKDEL
hamster BiP T518A (His6-tagged) (G3I8R9, form named): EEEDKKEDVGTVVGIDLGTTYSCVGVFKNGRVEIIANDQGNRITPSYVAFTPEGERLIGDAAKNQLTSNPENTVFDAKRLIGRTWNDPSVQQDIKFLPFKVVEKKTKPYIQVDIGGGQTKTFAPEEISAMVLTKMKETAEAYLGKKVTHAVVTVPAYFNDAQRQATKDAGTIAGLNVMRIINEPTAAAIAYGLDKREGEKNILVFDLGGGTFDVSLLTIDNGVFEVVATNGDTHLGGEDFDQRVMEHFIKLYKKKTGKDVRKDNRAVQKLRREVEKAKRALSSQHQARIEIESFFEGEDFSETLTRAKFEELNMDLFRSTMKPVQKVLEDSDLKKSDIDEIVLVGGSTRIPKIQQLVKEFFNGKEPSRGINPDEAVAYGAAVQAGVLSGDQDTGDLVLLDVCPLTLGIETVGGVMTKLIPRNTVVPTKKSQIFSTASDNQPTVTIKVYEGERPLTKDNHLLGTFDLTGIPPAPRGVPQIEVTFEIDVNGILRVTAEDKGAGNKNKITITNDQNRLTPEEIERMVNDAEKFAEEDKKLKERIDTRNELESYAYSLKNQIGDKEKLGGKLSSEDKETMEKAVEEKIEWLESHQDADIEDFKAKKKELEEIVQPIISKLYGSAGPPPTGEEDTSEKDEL
hamster BiP T518E (His6-tagged) (G3I8R9, form named): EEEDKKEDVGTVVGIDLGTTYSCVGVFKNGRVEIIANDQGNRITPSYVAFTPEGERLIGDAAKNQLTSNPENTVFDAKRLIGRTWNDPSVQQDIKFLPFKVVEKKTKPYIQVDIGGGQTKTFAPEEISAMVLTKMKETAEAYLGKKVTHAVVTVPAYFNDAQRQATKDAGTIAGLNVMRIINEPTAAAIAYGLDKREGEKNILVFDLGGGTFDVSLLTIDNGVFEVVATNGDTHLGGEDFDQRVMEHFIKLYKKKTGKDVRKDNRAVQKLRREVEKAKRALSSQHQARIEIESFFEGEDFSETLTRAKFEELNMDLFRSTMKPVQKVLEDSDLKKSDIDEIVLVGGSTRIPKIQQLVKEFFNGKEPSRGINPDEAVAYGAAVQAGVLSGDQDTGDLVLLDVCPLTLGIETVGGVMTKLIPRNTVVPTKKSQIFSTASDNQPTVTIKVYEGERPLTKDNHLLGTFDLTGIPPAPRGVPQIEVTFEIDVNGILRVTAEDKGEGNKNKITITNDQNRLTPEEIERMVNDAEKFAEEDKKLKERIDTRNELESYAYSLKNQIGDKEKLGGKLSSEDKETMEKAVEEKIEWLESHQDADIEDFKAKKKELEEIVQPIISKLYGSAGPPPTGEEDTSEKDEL

How the values were obtained:
Experiment in all cases: native gel or EMSA; purified His6-tagged BiP proteins (7 µg per lane) on 7.5% Tris-glycine native gels, Coomassie stain; samples in AMPylation buffer with or without 1.5 mM ATP and GST-FICD E234G; both purified
[1] = molecular target: hamster BiP E201G (His6-tagged) (Chinese hamster (Cricetulus griseus)) (UniProt G3I8R9)
[2] = molecular target: hamster BiP T366A (His6-tagged) (Chinese hamster (Cricetulus griseus)) (UniProt G3I8R9)
[3] = molecular target: hamster BiP T518A (His6-tagged) (Chinese hamster (Cricetulus griseus)) (UniProt G3I8R9)
[4] = molecular target: hamster BiP T518E (His6-tagged) (Chinese hamster (Cricetulus griseus)) (UniProt G3I8R9)

- binding [1]: binds
Substance: hamster BiP E201G (His6-tagged) (from UniProt G3I8R9 19-654)

- binding [2]: binds
Substance: hamster BiP T366A (His6-tagged) (from UniProt G3I8R9 19-654)

- binding [3]: binds
Substance: hamster BiP T518A (His6-tagged) (from UniProt G3I8R9 19-654)

- binding [4]: binds
Substance: hamster BiP T518E (His6-tagged) (from UniProt G3I8R9 19-654)
